# Measured values as given in patent US20230302452A1, “IMPROVEMENTS IN OR RELATING TO A METHOD OF MAINTAINING A MICRODROPLET” (priority 2020, published 2023).
# For at least one compound, name, drawing or mass did not settle the structure.
# Experiment: Leakage (partitioning) of fluorescein out of droplets into oil (FIG. 11)
# Type: physicochemical
# Conditions: droplet in unconditioned oil, over several hours
structure (smiles),measurement,value
O=C1OC2(c3ccc(O)cc3Oc3cc(O)ccc32)c2ccccc21 [fluorescein],leakage of fluorescein from droplet,leaks out or partitions out of the droplet
